Laboratory results: the supplement of paper PMC3334620
The full ranking holds about 33,000 sequences; the median of “E-score (-0.5 to 0.5)” is about -0.0014, and the highest 2% start at about 0.25. This is one part of the list.

target: T1, Cad1 (UniProt P24813); experiment: PBM E-score (8-mer binding enrichment) (E-score (-0.5 to 0.5)); higher = stronger / more preferred TF binding; conditions: protein concentration: 100 nM; construct: GST-full length
T1 sequence: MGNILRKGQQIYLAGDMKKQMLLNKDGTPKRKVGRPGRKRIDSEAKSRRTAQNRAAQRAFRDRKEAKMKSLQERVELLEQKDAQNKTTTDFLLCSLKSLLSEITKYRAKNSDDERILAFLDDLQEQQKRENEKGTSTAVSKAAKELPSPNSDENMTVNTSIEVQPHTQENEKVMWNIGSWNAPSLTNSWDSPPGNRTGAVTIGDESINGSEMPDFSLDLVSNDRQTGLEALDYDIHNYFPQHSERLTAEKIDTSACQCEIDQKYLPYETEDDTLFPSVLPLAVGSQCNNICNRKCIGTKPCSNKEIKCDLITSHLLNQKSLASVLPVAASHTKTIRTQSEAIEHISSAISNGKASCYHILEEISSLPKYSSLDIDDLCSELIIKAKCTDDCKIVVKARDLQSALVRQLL
How it was run: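 Using PURExpress in vitro transcription/translation, GST-tagged yeast transcription factors were made in full-length or DNA-binding-domain form. These were applied at about 100-200 nM to double-stranded universal all-10-mer Agilent arrays, and bound protein was detected with fluorescent anti-GST. Scans were normalised with masliner before the Universal PBM Analysis Suite assigned E-scores to ungapped eight-base words pooled with their reverse complements.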

First: ACGCCATA
Second: CCTCTAGC
The “PBM E-score” value of the first is higher: 0.101 for the first, -0.269 for the second.

Going from CATGACAA to GAGAATAC, the “PBM E-score” value falls from 0.165 to 0.0981.

Going from CTAGGCCA to TCTTGAAA, the “PBM E-score” value rises from -0.163 to 0.187.

Going from CTTTGTAC to ATACCCAT, the “PBM E-score” value falls from 0.0743 to 0.00593.

First: AACACGTG
Second: GGTCTTAA
The “PBM E-score” value of the first is higher: 0.217 for the first, -0.144 for the second.

Compared with ACTGCCAG, TGACTTAA is higher in “PBM E-score” value: -0.0252 for the first, 0.0533 for the second.

First: ACACAAGC
Second: CATCCTAA
The “PBM E-score” value of the first is lower: 0.0103 for the first, 0.0267 for the second.

Compared with CGAATCCC, ACACTACT is higher in “PBM E-score” value: 0.0511 for the first, 0.108 for the second.

Compared with AAATTCAA, CTGAGGAA is lower in “PBM E-score” value: -0.0271 for the first, -0.165 for the second.

Compared with GGTCTTGA, CTGCTATC is higher in “PBM E-score” value: -0.00848 for the first, 0.13 for the second.

First: AGGGTTAA
Second: AAAGCCAG
The “PBM E-score” value of the first is lower: -0.174 for the first, 0.0283 for the second.

Compared with AATTCGGG, ACAACCCG is lower in “PBM E-score” value: 0.0637 for the first, -0.0537 for the second.

Compared with GGCCGCTA, AAAACGCA is higher in “PBM E-score” value: -0.0531 for the first, 0.0109 for the second.

First: ACAGAATG
Second: ACATTTGC
The “PBM E-score” value of the first is higher: 0.0502 for the first, 0.0359 for the second.

Compared with AGCAAGTA, ACCTGATG is lower in “PBM E-score” value: -0.0572 for the first, -0.134 for the second.

Compared with ATAGTATC, AATGGACC is higher in “PBM E-score” value: 0.119 for the first, 0.216 for the second.

Going from CCGGTATC to AACGCAGG, the “PBM E-score” value falls from -0.147 to -0.194.

Compared with CGTTGGAC, AAAGAAGA is lower in “PBM E-score” value: -0.137 for the first, -0.205 for the second.

First: ACGGTGGC
Second: ACGATGAA
The “PBM E-score” value of the first is lower: -0.0654 for the first, 0.0286 for the second.

First: CAAATGGC
Second: ACCCGGTG
The “PBM E-score” value of the first is higher: -0.054 for the first, -0.123 for the second.

First: ATTGTCCC
Second: GATAACCC
The “PBM E-score” value of the first is lower: -0.0923 for the first, 0.0135 for the second.

Going from CGACGAAA to CGGTCTGC, the “PBM E-score” value falls from 0.105 to -0.0877.

First: AATTCCAT
Second: GACTTGGA
The “PBM E-score” value of the first is higher: 0.0643 for the first, -0.045 for the second.

Compared with AGATGCGG, GGCCAAAA is higher in “PBM E-score” value: -0.00438 for the first, 0.0248 for the second.

Going from CATAACAC to CACCATAG, the “PBM E-score” value falls from 0.0209 to -0.173.

Compared with CCAACCTA, CAGCTGCG is lower in “PBM E-score” value: 0.00527 for the first, -0.0342 for the second.

Compared with CATGCAAA, CATCTCAG is lower in “PBM E-score” value: 0.103 for the first, 0.0222 for the second.

Compared with ACGACACC, AGCACTCA is lower in “PBM E-score” value: -0.0498 for the first, -0.1 for the second.

First: CATCATCA
Second: GACATTTA
The “PBM E-score” value of the first is lower: -0.0576 for the first, -0.0115 for the second.

Compared with AAGGGCGG, CGTACACG is higher in “PBM E-score” value: -0.0106 for the first, 0.0454 for the second.

Compared with ACCGTAGA, ACGCGGAA is higher in “PBM E-score” value: 0.0783 for the first, 0.125 for the second.

Going from AACCACCG to CTATCGAA, the “PBM E-score” value falls from -0.104 to -0.107.

Compared with GTACTTCA, ACGCTCCG is lower in “PBM E-score” value: 0.251 for the first, -0.145 for the second.

Going from GATCTTAA to AGGCTTCG, the “PBM E-score” value falls from 0.073 to -0.219.

Compared with GCACGCGC, ACGAGATC is lower in “PBM E-score” value: 0.0412 for the first, 0.0341 for the second.

Going from AGACTGAC to CTTGCCTA, the “PBM E-score” value rises from -0.0725 to -0.0629.

Going from ACTGGGCT to AGTAATTG, the “PBM E-score” value rises from -0.115 to 0.0751.

Going from GTTAAGGA to CACCGGCA, the “PBM E-score” value rises from 0.0277 to 0.123.

Compared with CTGCGTCA, AGTTCGTC is higher in “PBM E-score” value: -0.0938 for the first, 0.121 for the second.

First: ATTGCCTA
Second: CGCGTCCC
The “PBM E-score” value of the first is lower: -0.0501 for the first, -0.0487 for the second.

Going from ATGTATAG to CGAGGCGA, the “PBM E-score” value falls from 0.102 to 0.0962.

Compared with AGCCCTCC, AATACACG is higher in “PBM E-score” value: -0.205 for the first, -0.00975 for the second.

Compared with AGGCGGAC, AGTTACGA is higher in “PBM E-score” value: -0.118 for the first, 0.138 for the second.

First: CGACATGC
Second: AACTTTAG
The “PBM E-score” value of the first is higher: 0.0522 for the first, -0.057 for the second.

Going from CTCTCTTC to AAGCTCAA, the “PBM E-score” value rises from -0.215 to -0.141.

Going from GCTGAAGC to GATATTAA, the “PBM E-score” value rises from 0.0577 to 0.187.

Compared with AGCGAGCG, GATCTTAC is lower in “PBM E-score” value: 0.0867 for the first, -0.0736 for the second.

First: CTTCAAGA
Second: GACACGTC
The “PBM E-score” value of the first is higher: 0.0733 for the first, -0.0379 for the second.

Going from ACTACACC to AGGTCTCC, the “PBM E-score” value falls from -0.0116 to -0.11.

Going from CAATAGAA to CTCTCTAA, the “PBM E-score” value rises from -0.2 to -0.172.

First: ATCTCCTA
Second: CTGAGCCC
The “PBM E-score” value of the first is higher: -0.0615 for the first, -0.161 for the second.

First: GTGGCAAA
Second: ATGGGGGG
The “PBM E-score” value of the first is higher: -0.161 for the first, -0.353 for the second.

Compared with ACGTGCAC, GCCTGAGC is lower in “PBM E-score” value: 0.0563 for the first, -0.0696 for the second.

Compared with ACTACGGG, AGGAACGC is higher in “PBM E-score” value: -0.0843 for the first, 0.155 for the second.

First: GAGCATTA
Second: CTTTCGGA
The “PBM E-score” value of the first is lower: 0.0112 for the first, 0.0275 for the second.

Compared with ATCCCAAT, AGAGCGCA is lower in “PBM E-score” value: -0.122 for the first, -0.22 for the second.

First: AACTCGAC
Second: AGTGCCTA
The “PBM E-score” value of the first is higher: 0.164 for the first, -0.123 for the second.

Compared with ACTGCGAG, AATTTGGG is higher in “PBM E-score” value: -0.0795 for the first, 0.0286 for the second.

Going from AAGAGGGT to AGTCAATC, the “PBM E-score” value rises from -0.182 to -0.105.

First: CGGGACGC
Second: AAGAGCTC
The “PBM E-score” value of the first is higher: -0.221 for the first, -0.225 for the second.

First: CTAGCATC
Second: ACAACTGT
The “PBM E-score” value of the first is lower: -0.107 for the first, 0.0361 for the second.

First: AAGTGCAG
Second: CACCTAGG
The “PBM E-score” value of the first is lower: -0.21 for the first, -0.146 for the second.

First: ACCCGATC
Second: CTAGAAAG
The “PBM E-score” value of the first is lower: -0.137 for the first, 0.013 for the second.

Compared with AGATACCT, GCGGTGTA is higher in “PBM E-score” value: -0.128 for the first, 0.0726 for the second.

Going from AAAGACGG to AACGTGTA, the “PBM E-score” value rises from -0.0712 to 0.109.

Going from GGGCAATA to ATATCAGC, the “PBM E-score” value rises from -0.00079 to 0.00753.

First: CGACTTTA
Second: TGAATGAA
The “PBM E-score” value of the first is higher: 0.102 for the first, 0.0419 for the second.

Going from CAGTGCGG to CTTTCTAC, the “PBM E-score” value rises from -0.0146 to 0.0489.

Compared with CACTCAAA, CGGGCAGA is higher in “PBM E-score” value: 0.0452 for the first, 0.0491 for the second.

Compared with AGAAGACG, GAACAACA is lower in “PBM E-score” value: 0.171 for the first, -0.043 for the second.

Going from ATTACATA to AGATTACT, the “PBM E-score” value falls from 0.296 to 0.184.

Going from CTAAACTC to TCATTACA, the “PBM E-score” value rises from -0.0151 to 0.23.

Compared with CCGCTTGC, CGCCTTCA is lower in “PBM E-score” value: -0.11 for the first, -0.129 for the second.

First: AACTGGAA
Second: GAGGAACC
The “PBM E-score” value of the first is higher: 0.129 for the first, -0.0742 for the second.

Compared with AGTGTGTG, CATCAATC is lower in “PBM E-score” value: 0.136 for the first, -0.0692 for the second.

Compared with CTTGTGAC, CCATACCA is higher in “PBM E-score” value: -0.0156 for the first, 0.0874 for the second.

Compared with ATGGACCG, CATGGTTC is higher in “PBM E-score” value: 0.00255 for the first, 0.024 for the second.

First: ATTGAGGC
Second: AATATGGA
The “PBM E-score” value of the first is lower: 0.0231 for the first, 0.0714 for the second.

Compared with ATACAGCC, CACCCCGC is higher in “PBM E-score” value: 0.0178 for the first, 0.0312 for the second.

Going from ACGCACCT to GGTCTTAC, the “PBM E-score” value falls from -0.00024 to -0.0387.

Compared with ACTTGGCC, AGCTCAGA is higher in “PBM E-score” value: -0.122 for the first, 0.0478 for the second.

Going from CAGGTTCC to AGAACGCG, the “PBM E-score” value rises from -0.0216 to 0.0894.

Going from CCAGGAAA to CGCGCGAA, the “PBM E-score” value rises from 0.17 to 0.175.

First: CCTTCCTA
Second: ACCATCTG
The “PBM E-score” value of the first is lower: -0.39 for the first, -0.0991 for the second.

Going from AGTTAAAG to CCACTGTC, the “PBM E-score” value falls from 0.0137 to -0.0971.

First: AAGTGCGA
Second: GCGTTTAA
The “PBM E-score” value of the first is lower: -0.236 for the first, 0.0668 for the second.
